Values from PubChem BioAssay AID504793 (Drosophila RNAi Screening Center, 2011).

Purpose: 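Whole-genome screen for parts of the DNA damage checkpoint at G2/M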 (primary screen)
System: Drosophila S2R+ cells
Reagents: long dsRNA against Drosophila genes, about 0.25 µg dsRNA per well
Time to read-out: 4 days of dsRNA, then 4 hours of drug before read-out
Treatment: doxorubicin 0.5 µM for 4 hours to cause double-strand breaks, in cells also given a low, harmless dose of dsRNA against nbs to sensitise the assay
Measurement: 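Per-well count of mitotic cells stained for phospho-histone H3 after doxorubicin exposure, used as mitotic index; counts are raw and not normalised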
Reading the numbers: mitotic cells: higher = more cells in mitosis, weaker G2 arrest
Hit rule: 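Genes are called active only when high mitotic counts were reproduced with independent dsRNAs and mitosis was checked for delay without damage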
Calls: active = confirmed in follow-up tests; inactive = not confirmed
In all, the deposit lists about 23,000 reagents; shown is a random part of those with a known target gene and a result. Over the whole deposit, 62 (0.27%) are marked active. 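Calls come from follow-up tests whose scores are not deposited, so confirmed genes may have low counts here; counts are not normalised per plate.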 Raw values vary from plate to plate and are shown uncorrected. Entries without a mark were called inactive. A plus sign joins genes that one reagent is predicted to hit.

For CG12869 [DRSC06208], the values are mitotic cells, replicate 1 = 6.
For Amy-p [DRSC06786], the values are mitotic cells, replicate 1 = 6.
RpL13A [DRSC12265] showed mitotic cells, replicate 1 = 7.
Against RpL13A [DRSC27297] the deposit lists mitotic cells, replicate 1 = 8.
Against CG10562 [DRSC14257], the values are mitotic cells, replicate 1 = 9.
With knock-down of CG10562 [DRSC29099], the screen gave mitotic cells, replicate 1 = 4.
For CG11449 [DRSC11662], the entry reads mitotic cells, replicate 1 = 7.
CG11449 [DRSC29180] scored mitotic cells, replicate 1 = 6.
Depletion of CG12929 [DRSC06242] came out at: mitotic cells, replicate 1 = 5.
Ipp [DRSC16718] gave mitotic cells, replicate 1 = 2.
Against Ipp [DRSC26058] the deposit lists mitotic cells, replicate 1 = 9.
Depletion of MED19 [DRSC10516] came out at: mitotic cells, replicate 1 = 4.
Against MED19 [DRSC23458] the deposit lists mitotic cells, replicate 1 = 3.
CG8229 + CG33199 [DRSC05134] scored mitotic cells, replicate 1 = 8.
For CG8229 + CG33199 [DRSC27680], the entry reads mitotic cells, replicate 1 = 5.
For CG7272 [DRSC10795] the deposit lists mitotic cells, replicate 1 = 5.

Laid out differently: 3 of the entries above.
{"gene": "MED19", "amplicon": "DRSC23458", "mitotic cells, replicate 1": 3}
{"gene": "CG8229 + CG33199", "amplicon": "DRSC05134", "mitotic cells, replicate 1": 8}
{"gene": "CG8229 + CG33199", "amplicon": "DRSC27680", "mitotic cells, replicate 1": 5}

The listing continues.
For mbt [DRSC23020] the deposit lists mitotic cells, replicate 1 = 7.
Against mbt [DRSC25818], the values are mitotic cells, replicate 1 = 5.
With knock-down of Trim9 [DRSC02242], the screen gave mitotic cells, replicate 1 = 9.
Silencing of Trim9 [DRSC28679] resulted in: mitotic cells, replicate 1 = 7.
Depletion of CG17140 + CG17139 [DRSC02585] came out at: mitotic cells, replicate 1 = 3.
Knock-down of CG17140 + CG17139 [DRSC02586] gave: mitotic cells, replicate 1 = 6.
For Mal-A3 [DRSC07462], the entry reads mitotic cells, replicate 1 = 5.
For Mal-A3 [DRSC28752], the values are mitotic cells, replicate 1 = 3.
